The supplement of paper PMC10338343
± gives the standard deviation. Only a part is listed here, and it is no random draw. Many of these values have a large error.

Test system: MIWI (PIWIL1) piRISC loaded with piRNA #2 (30 nt)
Test: pre-steady-state target cleavage rate (min^-1); MIWI and MILI are mouse PIWI proteins and EfPiwi is from a freshwater sponge; tags in brackets are library labels; higher = faster piRNA-guided slicing of the target
Details: guide: piRNA #2 5'p-UUAGGUAACCCAGUAGAUCCAGAGGAAUUC; auxiliary factor: 500 nM mouse GTSF1
Procedure: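 Cleave-'n-Seq: a library of target RNAs (target site embedded in constant flanks, ACAGCATTCCGCGTTAGTGATATCCG... 5' flank; DNA-blocked outside the site) at 0.1 nM was incubated with 1 nM active mouse MILI or MIWI piRISC (synthetic 5'-monophosphorylated piRNA guide) with or without 500 nM mouse GTSF1 at 33 °C for 1 min to 16 h. Uncleaved targets were sequenced and normalised to non-target controls, and the pooled three trials were fitted to a burst-and-steady-state model to give the pre-steady-state cleavage rate (min^-1; k3 is constrained to at most 1e-4). Sequence is the target site only; target names encode pairing extent (gX:gY) and contiguous / 1-mismatch / 2-mismatch / bulge geometry. Fits with R² ≤ 0 are excluded.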

Sequence	pre-steady-state target cleavage rate
CUUAAGGAGACCUAGAUCUGGGAAUCCUAA	0.000424 ± 0.018
CAAUUCGACUGGAUCUACUGGGUUACCUAA	0.357 ± 0.05
CUUAAGGAGACCAUCUACACGGUUACCUAA	0.00105 ± 0.0072
CUUAAGGUCUGGAUCGUACUGGGUUACCUAA	0.00294 ± 0.01
CUUAAGGAGAGGUUGUACUGGGUUACCUAA	0.000224 ± 0.034
CAAUUCCUCAGGAUCUACUGGGUUACCUUA	0.604 ± 0.075
CUUAAGGAGACGAUCUACUGGGUACCUAA	0.000768 ± 0.007
CUUAAGGAGACGAUCUACUGGGUUACCUCAA	0.00128 ± 0.0052
CUUAAGGAGAGGAUCUACUGGGUUACGAAA	0.000449 ± 0.021
CUUUUCCUCUGGAUCUACUGCGUUACCUAA	0.527 ± 0.057
CUUAAGGAGACCUACUACUGGUUACCUAA	0.00106 ± 0.0086
CUUAAGGAGACGAACUACUGGGUUACCUAA	0.000341 ± 0.016
CUUAAGGAGACCUUCUACUGGGUUGACCUAA	0.00198 ± 0.0041
CUAUUCCUCUGGUUCUACUGGGUUUCCUAA	1.05 ± 0.44
CAAUUCCUCUGAUCUACUGGGUUACCUAA	0.528 ± 0.061
CUUAAGGAGACCAUCUACGGGUUACCUAA	0.00289 ± 0.0059
GAAUUCCUCUGGAUCUAACUGGGUUACCUAA	0.00402 ± 0.0044
CUUAAGGAGACCUAGAUCUGGGUUACUCUAA	0.00032 ± 0.029
CUUAAGGAGAGGAUCUACUGGGUUUGCUAA	0.000179 ± 0.037
CUUAAGGAGUGGAUCAACUGGGUUACCAAA	0.00306 ± 0.0049
CAAUUCCACUGGAUCUACUGGGUUAGCUAA	0.223 ± 0.076
CUUAAGGAGUGGAUCUAGUGGGUUAGCUAA	0.000807 ± 0.015
CUUAAGGAGAGGAUCUACUGGGUGACCUAA	0.00306 ± 0.0058
CUUAAGGAGACCUAGAUGUGGGUUACCUAU [g2:g12:cont:t1U]	0.000797 ± 0.0082

A few values from the list.
CUUAAGGAGAGGUUGUACUGGGUUACCUAA – pre-steady-state target cleavage rate: 0.000224 ± 0.034
CUUAAGGAGACCAUCUACACGGUUACCUAA – pre-steady-state target cleavage rate: 0.00105 ± 0.0072
CUUAAGGAGACCUAGAUGUGGGUUACCUAU [g2:g12:cont:t1U] – pre-steady-state target cleavage rate: 0.000797 ± 0.0082
CUUAAGGAGACGAUCUACUGGGUACCUAA – pre-steady-state target cleavage rate: 0.000768 ± 0.007

Carrying on.

Sequence	pre-steady-state target cleavage rate
CUUAAGGAGACCUAGUACUUGGGUUACCUAA	0.000503 ± 0.0093
CUUAAGGAGUGGAUCUACUCGGUUAGCUAA	0.000272 ± 0.044
CUUAAGCUCUGGAUCUACUCCCUUACCUAA	0.000185 ± 0.037
CUUAAGGAGAGGAACUACUGGGUUACCAAA	0.000339 ± 0.024
CAAUUCCUCUGGAUCUACUGGGUAACCUAA	0.263 ± 0.049
CUUAAGGAGACCUAGAUGAGGCUUACCUAA	0.000367 ± 0.012
CUUAAGGUCUGGAUCUACGUGGGUUACCUAA	0.000118 ± 0.06
CUUAAGGAGACGAUCUACUGGGUUACCUAU [g2:g19:cont:t1U]	0.00299 ± 0.004
GAAUUCCUCUGGUUCUACUGGGUAACCUAA	0.288 ± 0.063
CUUAAGGAGAGGAUCAUCUGGGUUACCUAA	0.000193 ± 0.032
CUUAAGGAGACCAUCAACUGCGUUACCUAA	0.00173 ± 0.0029
CUUAAGGACUGGAUCUUCUGGGUUAGCUAA	0.0075 ± 0.01
CUUAAGGAGACGAUCUACUAGGGUUACCUAA	0.00264 ± 0.0053
CUUAAGGAGUGGUUCUACUCGGUUACCUAA	0.00269 ± 0.0098
CUUAAGGAGACCAUCUACUUGGGUUACCUAA	0.00115 ± 0.0054
CUUAUCCUCUCGAUCUACUGGGUUACCUAA	0.561 ± 0.04
CAAUUCCUCUGGAUCUACAGGGUUAGCUAA	0.157 ± 0.054
CUUAAGGAGACCUACUACUGGGUAAGCUAA	0.000965 ± 0.0072
CUUAAGGUCUGGAUCUACUGGGUAUGCUAA	0.00313 ± 0.0041
CUUAAGGAGACCUAGAUGAGGGUUACGAUA	0.000785 ± 0.0076
CUUAAGGAGUGGAACUACUGGGAUACCUAA	0.00192 ± 0.011
CUUAAGGAGACCUAGAUCUGGGUUCCUAA	0.000449 ± 0.015
CUUAAGGAGACCUUCUUACUGGGUUACCUAA	0.00145 ± 0.0069
CUAUUCCUCUGGAUCUACUCCGUUACCUAA	0.0198 ± 0.0061

Sequence	pre-steady-state target cleavage rate
CUUAAGGAGACCUAGAUCUGUGGUUACCUAA	0.000401 ± 0.0083
CUUAAGGAGACCUAGUACUGGGUUACUAA	0.00018 ± 0.033
CUUAAGGAGAGGAUCUACUGGGUUACUAA	0.000497 ± 0.015
CUUAAGGAGACCAUCAACUGGGUAACCUAA	0.000431 ± 0.011
CUUAAGGAGACCAUCUACUGGGUAACGUAA	0.000184 ± 0.037
CUUAAGGAGACCAUCUUCAGGGUUACCUAA	0.00141 ± 0.009
CUUAAGGACUGAGAUCUACUGGGUUACCUAA	0.0268 ± 0.028
CUUAUCCUCUGGAUCUACAGGGUUUCCUAA	0.119 ± 0.02
CUUAAGGAGACGAUCUACUAGGUUACCUAA	0.00245 ± 0.0049
CUUAAGGAGUGGUUCUUCUGGGUUACCUAA	0.00197 ± 0.0073
CGAUUCCUCUGGAUCUACUGGGUUACCUAA	0.329 ± 0.048
CUUAAGCUCUGGAUCUACUGGAGUUACCUAA	0.00131 ± 0.0063
CUUAAGGAGACCUAGAUGUGGGUUGACCUAA	0.000404 ± 0.015
CUUAAGGAGACCUUCAACUGCGUUACCUAA	0.00204 ± 0.0027
CUUAACCUCUGGAUCUACUGGUGUUACCUAA	0.00188 ± 0.0043
CUUAAGGAGAGGAUCUACUGGGAUACGUAA	0.0037 ± 0.0066
CUUAAGGUCUGGAUCUACUGGGUUACAUAA	0.606 ± 0.054
CAAUUCCUCUGGUUCUACUGGGUAACCUAA	0.162 ± 0.032
CAAUUCCUCUGGAUUACUGGGUUACCUAA	0.692 ± 0.054
CUUAAGGACUGGAUCUAGUCGGUUACCUAA	0.000256 ± 0.039
CUUAAGGAGUGGGAUCUACUGGGUUACCUAA	0.0146 ± 0.0073
CUUAAGGACUGGAUCUACUCGGUUACCAAA	0.00437 ± 0.013
CUUAAGGACUGGAUCAACUGGGUAACCUAA	0.00303 ± 0.013
